Laboratory results taken from paper PMC6347643.
These are yes or no findings as the source states them, for the method shown. Binding seen in cells or lysates may run through a third protein. Some entries that bind do so weakly or less than the wild type.

Protein sequences, listed by entry. Tags and fused reporters are not part of them.
UniProt P61290: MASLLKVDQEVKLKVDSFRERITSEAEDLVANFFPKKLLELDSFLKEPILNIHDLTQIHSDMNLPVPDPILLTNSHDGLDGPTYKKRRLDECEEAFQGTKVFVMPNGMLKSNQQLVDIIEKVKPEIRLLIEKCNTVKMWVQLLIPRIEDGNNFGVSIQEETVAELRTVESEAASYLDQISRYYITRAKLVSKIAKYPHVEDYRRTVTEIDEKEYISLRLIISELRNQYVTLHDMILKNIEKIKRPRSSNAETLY
UniProt P14859: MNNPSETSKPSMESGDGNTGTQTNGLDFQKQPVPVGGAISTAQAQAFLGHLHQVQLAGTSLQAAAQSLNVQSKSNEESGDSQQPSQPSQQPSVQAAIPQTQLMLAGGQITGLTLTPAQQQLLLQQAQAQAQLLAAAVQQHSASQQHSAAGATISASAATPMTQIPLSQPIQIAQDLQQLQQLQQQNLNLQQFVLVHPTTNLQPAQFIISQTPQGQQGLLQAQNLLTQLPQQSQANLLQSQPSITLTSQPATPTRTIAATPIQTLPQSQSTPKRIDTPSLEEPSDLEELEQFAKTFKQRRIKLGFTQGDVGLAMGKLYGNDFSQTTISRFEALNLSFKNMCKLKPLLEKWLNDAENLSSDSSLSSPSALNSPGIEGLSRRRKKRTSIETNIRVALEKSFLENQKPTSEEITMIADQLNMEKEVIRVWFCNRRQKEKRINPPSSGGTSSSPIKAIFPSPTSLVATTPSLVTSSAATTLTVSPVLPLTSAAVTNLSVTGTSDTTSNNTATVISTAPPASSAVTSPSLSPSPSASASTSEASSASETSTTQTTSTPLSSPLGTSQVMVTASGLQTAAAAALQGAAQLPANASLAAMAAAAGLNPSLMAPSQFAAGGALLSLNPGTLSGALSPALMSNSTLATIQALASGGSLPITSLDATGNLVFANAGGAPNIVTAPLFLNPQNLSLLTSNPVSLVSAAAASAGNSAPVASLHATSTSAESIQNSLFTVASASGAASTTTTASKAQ
UniProt Q9JIY0: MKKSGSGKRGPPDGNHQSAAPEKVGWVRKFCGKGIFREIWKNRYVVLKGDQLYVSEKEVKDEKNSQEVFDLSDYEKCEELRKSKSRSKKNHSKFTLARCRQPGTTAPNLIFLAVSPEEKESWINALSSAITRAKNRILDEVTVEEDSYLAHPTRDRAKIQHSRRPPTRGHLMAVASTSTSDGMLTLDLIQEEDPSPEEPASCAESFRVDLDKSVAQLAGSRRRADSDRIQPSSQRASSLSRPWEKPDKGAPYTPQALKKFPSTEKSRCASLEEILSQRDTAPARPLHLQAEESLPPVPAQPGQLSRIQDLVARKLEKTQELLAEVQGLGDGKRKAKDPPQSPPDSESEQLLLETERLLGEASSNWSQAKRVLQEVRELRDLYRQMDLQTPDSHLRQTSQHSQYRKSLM
UniProt Q53GL0: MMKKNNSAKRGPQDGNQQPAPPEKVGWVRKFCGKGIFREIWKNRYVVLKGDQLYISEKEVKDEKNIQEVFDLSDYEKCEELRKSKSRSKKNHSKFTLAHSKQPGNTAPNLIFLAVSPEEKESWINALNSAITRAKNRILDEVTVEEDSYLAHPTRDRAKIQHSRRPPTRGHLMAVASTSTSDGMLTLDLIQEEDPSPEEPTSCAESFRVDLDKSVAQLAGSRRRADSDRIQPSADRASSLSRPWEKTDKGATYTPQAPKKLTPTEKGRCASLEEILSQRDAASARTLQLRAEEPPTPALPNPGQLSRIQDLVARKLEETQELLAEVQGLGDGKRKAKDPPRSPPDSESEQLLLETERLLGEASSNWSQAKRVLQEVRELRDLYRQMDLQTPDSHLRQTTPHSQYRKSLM

Columns and labels:
[1] = molecular target: endogenous REGγ of mouse bone marrow-derived macrophages (mouse (endogenous in BMDMs)) (UniProt P61290); assay: co-IP; endogenous proteins in mouse BMDMs; HEPES lysis buffer (20 mM HEPES pH 7.2, 50 mM NaCl, 0.5% Triton X-100, 1 mM NaF, 1 mM DTT), protein A/G agarose, 4 °C
[2] = molecular target: HA-Oct-1 (octamer-binding transcription factor 1) (UniProt P14859); assay: co-IP; tagged proteins co-transfected into HEK293T cells (Fig. 3a, b, e; lanes of Fig. 3n without REGγ); HEPES lysis buffer (20 mM HEPES pH 7.2, 50 mM NaCl, 0.5% Triton X-100, 1 mM NaF, 1 mM DTT), protein A/G agarose, 4 °C, four washes

Row | Molecule | binding [1] | binding [2]
1 | endogenous CKIP-1 of mouse bone marrow-derived macrophages (from UniProt Q9JIY0 1-408) | binds | –
2 | Myc-CKIP-1 (casein kinase 2-interacting protein-1) (from UniProt Q53GL0 1-409) | – | no binding
3 | endogenous Oct-1 of mouse bone marrow-derived macrophages (protein, UniProt P25425 1-770) MNNPSETNKSSMESEDASTGTQTNGLDFQKQPVPVGGAISTAQAQAFLGHLHQVQLAGTSLQAAAQSLNVQSKSSEESGDSQQSSQPSSQPPSVQSAIPQTQLMLAGGQITGLTLTPAQQQLLLQQAQAQAQLLAAAVQQHSASQQHSAAGATISASAATPMTQIPLSQPIQIAQDLQQLQQLQQQNLNLQQFVLVHPTTNLQPAQFIISQTPQGQQGLLQAQNLLTQLPQQSQANLLQPQPSITLTSQPTTPTRTIAAASVQTLPQSQSTPKRIDTPSLEEPSDLEELEQFAKTFKQRRIKLGFTQGDVGLAMGKLYGNDFSQTTISRFEALNLSFKNMCKLKPLLEKWLNDAENLSSDSTASSPSALNSPGLGAEGLNRRRKKRTSIETNIRVALEKSFMENQKPTSEDITLIAEQLNMEKEVIRVWFCNRRQKEKRINPPSSGGTSSSPIKAIFPSPASLVATTPSLVTSSTATTLTVNPVLPLTSAAVTNLSLTDQDLRRGCSWEVLRSLPDRVTTTAGTTDSTSNNNTATVISTAPPASSAVTSPSLSPSPSASASTSEASSASETNTTQTTSTPLPSPLGASQVMVTTPGLQTAAAALQGAAQLPANASLAAMAAAAGLSPGLMAPSQFAAGGALLSLSPGTLGSALSPALMSNSTLATIQALASSGSLPITSLDATGNLVFANAGGAPNIVTAPLFLNPQNLSLLTSNPVSLVSAAAASTGNSAPTASLHASSTSTESIQSSLFTVASASGPASTTTAASKAQ | binds | –
